Legend:
[1] = tested on: Jurkat T cell human leukemia; assay: MTT cell growth inhibition, Jurkat; format: cell-based; conditions: 24 hours (Table 7)
Experimental: (§1) HT-29, SW-480 and HCT-15 human colon adenocarcinoma, MIA PaCa-2 and BxPC-3 human pancreatic cancer, LNCAP human prostate cancer, A549 human lung cancer, MCF-7 (estrogen receptor positive), MDA-MB 231 and SK-BR-3 (estrogen receptor negative) human breast cancer, and Jurkats human leukemia cell lines were obtained from American Type Tissue Collection (Manassas, Va.). All cells lines were grown as monolayers except for the Jurkats which were grown in suspension. […] Single cell suspensions were obtained by trypsinization (0.05% trypsin/EDTA), and cells were counted using a hemocytometer. Viability was determined by the trypan blue dye exclusion method.
(§2) Cell growth inhibitory effect of NOSH compounds were measured using a colorimetric MTT assay kit (Roche, Indianapolis, Ind.). […] The absorbance of the plates was measured on an ELISA reader at a wavelength of 570 nm. […]
(§3) HT-29, SW-480 and HCT-15 human colon adenocarcinoma, MIA PaCa-2 and BxPC-3 human pancreatic cancer, LNCAP human prostate cancer, A549 and H383 human lung cancer, MCF-7, MDA-MB 231 and SK-BR-3 human breast cancer and Jurkat T cell human leukemia cell lines were obtained from American Type Tissue Collection (Manassas, Va.) All cells lines were grown as monolayers except for the Jurkat T cells which were grown as suspension culture. […] Viability was determined by the trypan blue dye exclusion method. […]

[2] = tested on: TNF-α; assay: Plasma TNF-α enzyme immunoassay; format: in vivo, rat; conditions: rats, equimolar oral doses: ASA 180 (1 mmol/kg), NOSH-ASA 477, naproxen 80, NOSH-naproxen 188, sulindac 200, NOSH-sulindac 467 mg/kg; control 11±0.3
Experimental: Fresh samples of blood from the animals were taken by cardiac puncture into heparin-containing vials. The determination of plasma TNF-α was carried out by an enzyme immunoassay kit from R&D systems (Minneapolis, Minn.). Briefly, each sample (50 μL) was incubated with antibodies specific for rat TNF-α and washed three times with assay buffer. An enzyme-linked polyclonal antibody specific for rat TNF-α conjugated to horseradish peroxidase was then added to the wells. Following washing of unbound antibody-enzyme reagent, a substrate solution (containing tetramethylbenzidine, TMB, plus hydrogen peroxide) was added to the wells. […] The intensity of the color was determined by measuring the OD of the yellow color in a standard ELISA plate reader at 450 nm. Sensitivity of this TNF-α assay was determined by adding two standard deviations to the mean optical density value of 20× zero standard replicates and calculating the corresponding concentration. […] The results are expressed as pg/mL. […]
This was done by an enzyme immunoassay kit from R&D systems (Minneapolis, Minn.) following the protocol described by the manufacturer. […] The intensity of this was measured at 450 nm. Sensitivity of this TNF-α assay was determined by adding two standard deviations to the mean optical density value of 20× zero standard replicates and calculating the corresponding concentration. […]

[3] = tested on: HCT-15 human colon adenocarcinoma; assay: MTT cell growth inhibition, HCT15; format: cell-based; conditions: 24 hours (Table 7)
Experimental: as §1, §2, §3

For `COc1ccc2cc([C@H](C)C(=O)O)ccc2c1` [naproxen, reference compound], the IC50 [1] was 2.55 mM, the “plasma TNFα concentration” value [2] was 150 ± 2 pg/mL and the IC50 [3] was 2.85 mM.
